The results in this text go back to ChEMBL document CHEMBL3045015, “Synthesis and physiological evaluation of new N-nitroso-2,6-dicarbethoxy-3,5-diaryltetrahydro-1,4-thiazine-1,1-dioxides” (Med Chem Res, 2012).

The test system of the experiment is Candida albicans. In words: Antifungal activity against Candida albicans MTCC 227 at 10 ug/ml by disk diffusion method. Type of experiment: functional. A general note: A growth-free zone around the sample is the usual read-out of agar diffusion tests.

For the sequence NYSTATIN, the inhibition zone (IZ) worked out at 19 mm.
